No constants are given. Whether binding was seen depends on the method and setting. In cells and extracts the contact can be indirect. These calls come from enrichment with a bait or labelling near it, and not all partners need be listed.
T1: δ-tubulin (TUBD1) (mouse (endogenous in IMCD3)) (UniProt Q9R1K7)
T1 sequence: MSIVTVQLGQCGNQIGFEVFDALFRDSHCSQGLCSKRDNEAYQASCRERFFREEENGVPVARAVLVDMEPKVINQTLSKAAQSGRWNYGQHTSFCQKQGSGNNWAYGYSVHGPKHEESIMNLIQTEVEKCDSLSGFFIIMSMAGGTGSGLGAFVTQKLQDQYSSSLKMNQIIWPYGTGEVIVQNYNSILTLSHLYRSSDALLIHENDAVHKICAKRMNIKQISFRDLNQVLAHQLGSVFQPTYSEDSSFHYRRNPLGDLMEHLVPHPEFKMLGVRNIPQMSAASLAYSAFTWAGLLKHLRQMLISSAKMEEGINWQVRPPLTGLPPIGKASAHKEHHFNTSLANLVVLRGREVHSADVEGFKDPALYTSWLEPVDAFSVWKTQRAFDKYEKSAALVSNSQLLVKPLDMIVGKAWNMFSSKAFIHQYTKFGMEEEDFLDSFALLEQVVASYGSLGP

Chains of the proteins cited; added tags and fusions are not shown. Lines headed by an entry give the natural chain unless they say otherwise; changes in a name come on top.
UniProt Q8BP22: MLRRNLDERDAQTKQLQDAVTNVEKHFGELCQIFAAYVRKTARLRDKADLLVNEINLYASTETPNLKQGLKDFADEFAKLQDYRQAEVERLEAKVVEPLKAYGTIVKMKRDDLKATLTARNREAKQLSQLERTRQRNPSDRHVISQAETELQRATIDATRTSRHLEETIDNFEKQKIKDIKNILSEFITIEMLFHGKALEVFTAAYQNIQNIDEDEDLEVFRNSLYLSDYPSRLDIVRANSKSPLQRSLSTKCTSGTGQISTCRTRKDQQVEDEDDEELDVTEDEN

T2: TTC23-LAP (mouse) (UniProt Q8CHY7)
T2 sequence: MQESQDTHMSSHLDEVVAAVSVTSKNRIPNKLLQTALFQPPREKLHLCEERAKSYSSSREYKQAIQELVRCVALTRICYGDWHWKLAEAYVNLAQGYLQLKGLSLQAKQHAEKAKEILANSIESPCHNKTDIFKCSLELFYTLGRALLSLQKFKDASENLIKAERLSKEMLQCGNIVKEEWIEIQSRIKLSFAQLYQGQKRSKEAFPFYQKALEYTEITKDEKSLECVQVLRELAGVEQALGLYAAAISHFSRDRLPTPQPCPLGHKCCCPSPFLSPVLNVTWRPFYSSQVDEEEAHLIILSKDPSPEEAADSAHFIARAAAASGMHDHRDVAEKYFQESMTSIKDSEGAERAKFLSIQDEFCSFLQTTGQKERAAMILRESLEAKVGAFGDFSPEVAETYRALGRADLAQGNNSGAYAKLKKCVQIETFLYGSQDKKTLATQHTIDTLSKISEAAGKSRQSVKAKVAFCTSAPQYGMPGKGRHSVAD


How the values were obtained:
Test in all cases: affinity purification with mass spectrometry
[1] = biological target: 1600002H07Rik-LAP (mouse)
[2] = biological target: T1, δ-tubulin (TUBD1) (mouse (endogenous in IMCD3))
FAM92A-LAP (mouse) = FAM92A-LAP (mouse) (UniProt Q8BP22)
TTC23-LAP (mouse) = biological target: T2, TTC23-LAP (mouse)

Row | Binder | binding [1] | binding (TTC23-LAP (mouse)) | further results
1 | ε-tubulin (TUBE1) (protein, UniProt Q9D6T1 1-475) MTQSVVVQVGQCGNQIGCCFWDLALREHAAVNQKGIYDDAISSFFRNVDTRAVGDGGSISKGRISSLKARAVLIDMEEGVVNEILQGPLRDVFDSKQLITDISGSGNNWAVGHKVFGCLYREQILEKLRKSAEQCDCLQCFFIIHSMGGGTGSGLGTFLLKVLEDEFPEVYRFVTAVYPSSEDDVITSPYNSMLAMKELNEHADCVLPIDNQSLFDIISKIDLVVNSGKLGSAVKPKSLITSNMGAVKKHHKKPFDAMNNIVANLLLSLTSSARFEGSLNMDLNEISMNLVPFPKLHYLVSSLTPLYTLADVNIPPRRLDQMFSDAFSKDHQLIQADPRHSLYLACALIVRGNVQISDLRRNIERLKPALQFVSWNQEGWKTSLCSVPPVGHSHSLLALANNTCVKPTFMELRERFTRLYKKKAHLHHYLQVDGMEESTFTEAVSSLSALIQEYSDLDATKSLPVPDVPRLSVAL | binds |  | binding [2]: binds
2 | DZIP1L (protein, UniProt Q499E4 1-774) MQYPAATAEGLSGPLSGAYTLPAFKFQPRRESIDWRRISAVDVDRVARELDVATLQENIAGVTFCNLDGEVCNHCRQPVDPVLLKVLRLAQLIIEYLLHCQDCLSASVAQLEARLQASLGQQQRGQQELGRQADELKGVREESRRRRKMISTLQQLLLQTSAHSYHTCHLCDKTFMNATFLRGHIQRRHAGMADVGKQKQEQPLGEVLEELRAKLKWTQGELEAQREAERQRQVQELEMARQREMEAKKKFDEWKEKERSKLYGEIDKLKQLFWDEFKTVANQNSTLEEKLKALQSYSMTESHLGSLRDEESEERLKHAQEVQALQEKMEVQKTEWKRKMKALHEERAAERRQLQEENERLHVSLSQDQKKAAAQSQRHINALRAQLQEQARLIESQEETIQTLSLRKVEEVQEMPKAVATEEDSSEEELEASLEERQEQRKVLAALRKNPTWLKQFRPILEDTLEEKLEGLGIKRDTKGISAQTVRRLEPLLRTQREQIARSFREFPSLREKLNKEVSSRVKQRWESTTQPDGQPPVKSQRVTLATREVRPKTRTLTVALPSKPAEPSTPTLQGHSSHGPGLTQVSTPIPRPRVHGPSSTPVSPGSGLSSTPPFSSEEEPEGDVVQRVSLQPPKVLPRSAAKPEDNWGWSDSETSEESAQPPGKGSGGLASSGTLVQSIVKNLEKQLETPAKKPSGGVNMFLRPNAALQRASTPARKSQLSEDESDVEISSLEDLSQDLGQKGKPKPLSHSKLPEKFDVSPWSSGSRPRIPGW |  |  | binding (FAM92A-LAP (mouse)): binds
3 | IQCE (protein, UniProt Q6PCQ0 1-778) MSLGTTDIASETGDDSLSAITFESDIESKTKRKSFHKPPSTSPKSPYYSKPRKVTSWRSLKTAGSMPLSSRMSLTPQKLWLGSSKQGSVAQPPSPTLTSEHAWTHPPSCTPDYLTEAVRAKRADLRRSGSHGHVSGTSVYREKEDMYDEIIELKKSLHMQKSDVDLMRTKLRRLEEENSRKDRQIEQLLDPSRGPDFVRTLAEKKPDTGWVITGLKQRIFRLEQQCKEKDNTINKLQTDMKTTNLEEMRIAMETYYEEIHRLQTLLASSEATGKKPMVEKKLGVKRQKKMSSALLNLTRSVQELTEENQSLKEDLDRMLSNSPTISKIKGYGDWSKPRLLRRIAELEKKVSSSESPKQSTSELVNPNPLVRSPSNISVQKQPKGDQSPEDLPKVAPCEEQEHLQGTVKSLREELGALQEQLLEKDLEMKQLLQSKIDLEKELETAREGEKGRQEQEQALREEVEALTKKCQELEEAKREEKNSFVAVTHEAHPELHAPSPCSRHSEPDSDNSAGEEGSSQPPAPCSEERREAAIRTLQAQWKAHRRKKREAALDEAATVLQAAFRGHLARSKLVRSKVPDSRSPSLPGLLSPLNQSSPAPRVLSPISPAEENPTQEEAVIVIQSILRGYLAQARFIASCCREIAASSQRETVSLTPSGSASPPSLRASPGVIRKELCASEELRETSASEPAPSVPYSAQGGHGDCPSSSSLEAVPSMKDAMCEERSSSPRSAGPSLAEPSPPELQPLSPPPVEDICSDDSDDIIFSPFLPRKKSPSPF |  | binds | 
4 | EFCAB7 (protein, UniProt Q8VDY4 1-628) MASNPGSDAALGTQNPLLSGSPRTKKFPLTEQEVFYMNCRAAYLTIFKSSLENIISKDQLYLALQHAGRNPSQKTINKYWTPQTAKLNFDDFCIILSKEKPTSKAELLKSFKKLDVNDDGAILHSDLQKYLTKRGEKMTQEEVNAVINLADINANGKFDYVKFCKLYMTTSEQCLKTTLERLEADSKLRRQQFGSHMEGSPERGPSPAPKPSPRVIRKNDQETFSSKGDTSHALLSTTRKFKTSVSFTMTMSANSNQDSTLTEPNLKDWQCAQSKGCFFLEEDGEVVSHQYKMHIAQRSVLYLTIKPLYLSQVEGKRCPWLSVDTALYILKKNENPAEPQLMCFTELRNREVFGWTGELEAGIYWLIPSTTGCRLKKETKPVTEEAQLVHRDETGELSLTSEFRSTLSEIFEVIDLDGNGLISLEEYNFFELRTSGEKCDEDAWAVCRENFDTKKNELTRQGFMDLHLMEANDREGDPLDLWVTLHSMGYNKALELTEACPFVINIYAERCKPRIKVVHMEACSGQLEKAICKSVLDRSDAKVMDGYENIIVHTCNYDTWITSIIENKSDNKVIIHINNELSKNCVNNRGLNIFAVEVAPRSTMVCQHVMPLNEQEEWIYCCVYSLVA |  | binds | 
5 | δ-tubulin (TUBD1) (protein, UniProt Q9R1K7 1-455) MSIVTVQLGQCGNQIGFEVFDALFRDSHCSQGLCSKRDNEAYQASCRERFFREEENGVPVARAVLVDMEPKVINQTLSKAAQSGRWNYGQHTSFCQKQGSGNNWAYGYSVHGPKHEESIMNLIQTEVEKCDSLSGFFIIMSMAGGTGSGLGAFVTQKLQDQYSSSLKMNQIIWPYGTGEVIVQNYNSILTLSHLYRSSDALLIHENDAVHKICAKRMNIKQISFRDLNQVLAHQLGSVFQPTYSEDSSFHYRRNPLGDLMEHLVPHPEFKMLGVRNIPQMSAASLAYSAFTWAGLLKHLRQMLISSAKMEEGINWQVRPPLTGLPPIGKASAHKEHHFNTSLANLVVLRGREVHSADVEGFKDPALYTSWLEPVDAFSVWKTQRAFDKYEKSAALVSNSQLLVKPLDMIVGKAWNMFSSKAFIHQYTKFGMEEEDFLDSFALLEQVVASYGSLGP | binds |  | 
